The record followed here is patent US5624894A (University of Florida, priority 1995, dated 1997).

A short description of the series: general procedure: solution-phase peptide synthesis; DCC/HOBt.

In turn, “1,4-Dihydrotrigonellyl-Ala-Tyr-D-Ala-Gly-Phe-D-Leu-OH” displayed a step yield (late stage modification step) of 25% yield.
“1,4-dihydrotrigonellyl-Ala-Tyr-D-Ala-Gly-Phe-D-Leu-Ethyl Ester”: where the note is “late stage modification step”, the step yield came to 72% yield.
The substance “Boc-Ala-Ala-Gln-Leu-Pro-Gly-cholesteryl ester” yielded a step yield (coupling step) of 81.25%.
“Boc-Ala-Gln-Leu-Pro-Gly-Cholesteryl Ester”: the step yield (coupling step) was determined as 86.41%.
Under “coupling step”, “Boc-Ala-Pro-Gln-Leu-Pro-Gly-Cholesteryl Ester” came in with a step yield of 63.7%.
On the same count and under the same terms, the result for Boc-Gln-Leu-Pro-Gly-Cholesteryl Ester reads 38.64%; that for “Boc-Pro-Gln-Leu-Pro-Gly-Cholesteryl Ester”, 84.7%; that for “Boc-Pro-Pro-Gln-Leu-Pro-Gly-cholesteryl Ester”, 63.7%.
Substance “N-t-Boc-Ala-Tyr-D-Ala-Gly-Phe-D-Leu-Cholesteryl Ester” showed a step yield (coupling step) of 81% yield.
As for “N-t-Boc-D-Ala-Gly-Phe-D-Leu-Cholesteryl Ester”, the step yield (coupling step) stood at 70%.
The substance “Nicotinoyl-Ala-Ala-Gln-Leu-Pro-Gly-Cholesteryl Ester” yielded a step yield (late stage modification step) of 39.25%.
The substance “Nicotinoyl-Ala-Ala-Tyr(O-tBu)-Arg(.OMEGA.-Pmc)-Cholesteryl Ester” showed a step yield (coupling step) of 71.6%.
Take “Nicotinoyl-Ala-Gln-Leu-Pro-Gly-Cholesteryl Ester”: the step yield (late stage modification step) is given as 75%.
“Nicotinoyl-Ala-Pro-Gln-Leu-Pro-Gly-Cholesteryl Ester” returned a step yield (late stage modification step) of 68%.
Under “late stage modification step”, “Nicotinoyl-Ala-Tyr-D-Ala-Gly-Phe-D-Leu-Cholesteryl Ester” displayed a step yield of 75% yield.
The same measure, in the same setting: the same measure for “Nicotinoyl-Pro-Pro-Gln-Leu-Pro-Gly-Cholesteryl Ester”: 69.6%.
Regarding “Nicotinyl-Pro-Gln-Leu-Pro-Gly-Cholesteryl Ester”, the step yield (late stage modification step) is recorded as 69.6%.
“Trigonellyl-Ala-Ala-Tyr(O-tBu)-Arg(.OMEGA.-Pmc)-Cholesteryl Ester Methylsulfate”: where the note is “late stage modification step”, the step yield result is “approximately 100%”.
As to “Trigonellyl-Ala-Ala-Tyr-Arg-Cholesteryl Ester Methylsulfate”, the step yield (late stage modification step) stood at 76.9%. The final ms purity result (late stage modification step, mass spectrum peak area) is given as “peak area>90% of the total peak areas”.
“Trigonellyl-Ala-Ala-Tyr-D-Ala-Gly-Phe-D-Leu-Cholesteryl Ester Methylsulfate” gave a step yield (late stage modification step) of 63.5% yield.
“Trigonellyl-Ala-Ala-Tyr-D-Ala-Gly-Phe-D-Leu-OH Methylsulfate” showed a step yield (late stage modification step) of 39.7% yield.
On the same count and under the same terms, the result for “Trigonellyl-Ala-Tyr-D-Ala-Gly-Phe-D-Leu-Cholesteryl Ester Methylsulfate” reads 68.5% yield.
“Trigonellyl-Ala-Tyr-D-Ala-Gly-Phe-D-Leu-Ethyl Ester Methylsulfate” had a step yield (late stage modification step) of 65% yield.
